According to article PMC7819943, “Rice protein-binding microarrays: a tool to detect cis-acting elements near promoter regions in rice”:
Some of the results follow.

By UniProt entry, the sequences of proteins in these tests, tags left out.
UniProt Q0JBA9, entry or part of it: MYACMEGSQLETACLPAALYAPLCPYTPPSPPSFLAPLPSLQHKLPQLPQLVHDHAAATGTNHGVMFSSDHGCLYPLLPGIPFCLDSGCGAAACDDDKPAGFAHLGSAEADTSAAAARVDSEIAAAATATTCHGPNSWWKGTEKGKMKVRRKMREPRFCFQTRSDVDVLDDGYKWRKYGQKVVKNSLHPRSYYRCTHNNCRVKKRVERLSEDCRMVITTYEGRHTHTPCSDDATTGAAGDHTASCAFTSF

Target: OsWRKY34 (Oryza sativa, UniProt Q0JBA9 1-250)
Assay: protein-binding microarray (RPBM); PBS, 2% BSA, 51.3 ng/ul salmon testes DNA, 50 uM zinc acetate, 200 nM TF, 25 C, 1 h; high values mean tight binding
Details: protein: recombinant; tags: N-terminal polyhistidine and DsRed monomer fusion (pET32a); label: CyDye5-dUTP incorporated in the synthesized complementary strand; 3' TTTTT single-stranded linker to array surface; dsDNA, one strand shown
How it was run: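 In PBS with 2% BSA, salmon testes DNA and 50 µM zinc acetate, 200 nM protein was incubated on a custom Agilent array at 25 °C for 1 h and then washed off. The array had been made double-stranded by primer extension with Cy5-dUTP and blocked with 2% BSA. The proteins were transcription factors fused N-terminally to polyhistidine and DsRed, expressed in E. coli BL21-CodonPlus and purified on Ni–NTA. The binding signal is per-feature fluorescence intensity (arbitrary units) from an Axon 4000B scanner.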

Sequence | binding signal
GCACAGGCCACGCACCCCATGTTGCTCATCCAATGTGACGCGGAGTCACCTAGTGCAG | 8210 fluorescence intensity (a.u.)
ATGTTATCGCTATCCCTATTATAAAACTTGCTCGTATGAACGGAGTCACCTAGTGCAG | 8120 fluorescence intensity (a.u.)
ACTTTTTTTACAATCTGGTCCTTTATGAACATTCTTTTTTCGGAGTCACCTAGTGCAG | 8080 fluorescence intensity (a.u.)
TGCAGAATCGCTCACCTTCTTCTTCTTCTTCTTCATGGGCCGGAGTCACCTAGTGCAG | 9860 fluorescence intensity (a.u.)
CGCAAATGGGCCAGTGGGTCGCTGTCCAGAGTGGGAGGGGCGGAGTCACCTAGTGCAG | 9470 fluorescence intensity (a.u.)
TGTTAACTTTTTAGTACGTGTTTGACTATTCGTTTTATTCCGGAGTCACCTAGTGCAG | 12800 fluorescence intensity (a.u.)
GAGAGAGGGGATGGGTACACATGTGTGTCGGTGCGTTTAGCGGAGTCACCTAGTGCAG | 9740 fluorescence intensity (a.u.)
AGGCCCGTGCAGGAAGGGGCCGGGGCAGTGACCACCACCACGGAGTCACCTAGTGCAG | 13300 fluorescence intensity (a.u.)
CCTCGAACATTGCGACCTTGGCGAACACTGAGGTGTTGACCGGAGTCACCTAGTGCAG | 8240 fluorescence intensity (a.u.)
CTACTACCCGGCCTCTCGCCTTCTCGCGCGGCCGCGATTTCGGAGTCACCTAGTGCAG | 9180 fluorescence intensity (a.u.)
CGCCACCACAAACCGCCGCCGCCTCCTCCTCTCCTATCTGCGGAGTCACCTAGTGCAG | 8280 fluorescence intensity (a.u.)
CACGGTTTTTATTATTTTTTTTGGATCCAATTGACACATACGGAGTCACCTAGTGCAG | 9500 fluorescence intensity (a.u.)
CCAAACACACCACACCCCGCGCCGCGCCGCGCCTTCACTTCGGAGTCACCTAGTGCAG | 8860 fluorescence intensity (a.u.)
AGGTTCTTATATCAACTGATGTTCTTGCTCGAGGTTTCGACGGAGTCACCTAGTGCAG | 8630 fluorescence intensity (a.u.)
ATACAACGGTGGACCGGTGATGGACTTTACTCTTTCTATACGGAGTCACCTAGTGCAG | 8480 fluorescence intensity (a.u.)
CTTAGTTTTACCTCTCTATTTTACTTTGTGAGAACATTCCCGGAGTCACCTAGTGCAG | 8460 fluorescence intensity (a.u.)
GCACAACTTTTCGTTTTTTATATTTGCACAATTTTTTTTTCGGAGTCACCTAGTGCAG | 12200 fluorescence intensity (a.u.)
AAATGGTAGTTGTCGCTGTTGTTTCCCAGCACCTCTCGCTCGGAGTCACCTAGTGCAG | 10800 fluorescence intensity (a.u.)
ATGGTGATCGGACGGCTGAGATTGCGTGGTGGTGGCGGGACGGAGTCACCTAGTGCAG | 8940 fluorescence intensity (a.u.)
AACTGCACTTCCCTTTTCAGCTCTTCTCCAACCTCAATTTCGGAGTCACCTAGTGCAG | 10100 fluorescence intensity (a.u.)
TCTGTTGACCTGTAAATTCTTCTGGGCCATTATCCCAACACGGAGTCACCTAGTGCAG | 8700 fluorescence intensity (a.u.)

In a second layout: entries from further up
Sequence,binding signal
TGTTAACTTTTTAGTACGTGTTTGACTATTCGTTTTATTCCGGAGTCACCTAGTGCAG,12800 fluorescence intensity (a.u.)
GAGAGAGGGGATGGGTACACATGTGTGTCGGTGCGTTTAGCGGAGTCACCTAGTGCAG,9740 fluorescence intensity (a.u.)
AGGCCCGTGCAGGAAGGGGCCGGGGCAGTGACCACCACCACGGAGTCACCTAGTGCAG,13300 fluorescence intensity (a.u.)
CCTCGAACATTGCGACCTTGGCGAACACTGAGGTGTTGACCGGAGTCACCTAGTGCAG,8240 fluorescence intensity (a.u.)
CTACTACCCGGCCTCTCGCCTTCTCGCGCGGCCGCGATTTCGGAGTCACCTAGTGCAG,9180 fluorescence intensity (a.u.)
CGCCACCACAAACCGCCGCCGCCTCCTCCTCTCCTATCTGCGGAGTCACCTAGTGCAG,8280 fluorescence intensity (a.u.)
CACGGTTTTTATTATTTTTTTTGGATCCAATTGACACATACGGAGTCACCTAGTGCAG,9500 fluorescence intensity (a.u.)
CCAAACACACCACACCCCGCGCCGCGCCGCGCCTTCACTTCGGAGTCACCTAGTGCAG,8860 fluorescence intensity (a.u.)
AGGTTCTTATATCAACTGATGTTCTTGCTCGAGGTTTCGACGGAGTCACCTAGTGCAG,8630 fluorescence intensity (a.u.)
ATACAACGGTGGACCGGTGATGGACTTTACTCTTTCTATACGGAGTCACCTAGTGCAG,8480 fluorescence intensity (a.u.)
CTTAGTTTTACCTCTCTATTTTACTTTGTGAGAACATTCCCGGAGTCACCTAGTGCAG,8460 fluorescence intensity (a.u.)
GCACAACTTTTCGTTTTTTATATTTGCACAATTTTTTTTTCGGAGTCACCTAGTGCAG,12200 fluorescence intensity (a.u.)
AAATGGTAGTTGTCGCTGTTGTTTCCCAGCACCTCTCGCTCGGAGTCACCTAGTGCAG,10800 fluorescence intensity (a.u.)

Next part

Sequence | binding signal
AATTTCCTTGTATTTCTGTTTATTAATCCTATGCTATTTTCGGAGTCACCTAGTGCAG | 8300 fluorescence intensity (a.u.)
GTGTCCAAACTTTCCTCGAACTCCTCCCCGCCGCATAAATCGGAGTCACCTAGTGCAG | 8550 fluorescence intensity (a.u.)
TCTGGTCAGCACCACTTTGATCCTTGCAATCGCCACATCACGGAGTCACCTAGTGCAG | 8550 fluorescence intensity (a.u.)
GATTCTGATGTGACACAAACTTATTAACAATATTCCAACACGGAGTCACCTAGTGCAG | 9280 fluorescence intensity (a.u.)
ATTTTTTCTTTATCTCTCACTCGATTTTCTCACTCAAATTCGGAGTCACCTAGTGCAG | 11500 fluorescence intensity (a.u.)
TACTTTGCATCCCTCCACGTTCGGGCATATCATATAGCTCCGGAGTCACCTAGTGCAG | 8150 fluorescence intensity (a.u.)
TTTCCCTGCAATTGGATTCTTCACAGGTGGAAGACTTACCCGGAGTCACCTAGTGCAG | 8610 fluorescence intensity (a.u.)
TATAATAGGTTTTGTTTCACTTAGATTTCACAGATTTTGTCGGAGTCACCTAGTGCAG | 8120 fluorescence intensity (a.u.)
ACCCTTCTCGTCTCGTGTATACAATGTATGTACCTATTAACGGAGTCACCTAGTGCAG | 9850 fluorescence intensity (a.u.)
TCGGTCCCTCCGCTTCGCTGTTGTGGGACGTGGGTCGGGGCGGAGTCACCTAGTGCAG | 11500 fluorescence intensity (a.u.)
ACTTAATCCATTTTCTTTTCTTCTCCTATTTTTCCATCAACGGAGTCACCTAGTGCAG | 9970 fluorescence intensity (a.u.)
TACGGGAGCGTCCTCTTCCTCTTCTTCGCTCTCCACTCCGCGGAGTCACCTAGTGCAG | 10300 fluorescence intensity (a.u.)
CGACCAAACAACCGCCTTTTTTTTTAGTCTCCACTCTCTCCGGAGTCACCTAGTGCAG | 8970 fluorescence intensity (a.u.)
ATACCACTAGCTCGCCTCTCGTCTCCGCGTCACTGAAATTCGGAGTCACCTAGTGCAG | 11500 fluorescence intensity (a.u.)
ATCTAGCATCTCCGTTTTTTGTAAGGTTGGTTCATGCCTCCGGAGTCACCTAGTGCAG | 10400 fluorescence intensity (a.u.)
TTTTAATAACACCATTGACTTTTCATATAACATTGGTCCACGGAGTCACCTAGTGCAG | 9200 fluorescence intensity (a.u.)
TCTTCGCACCCTAAGATTTCCACGTCGTCGATGCCTTTTCCGGAGTCACCTAGTGCAG | 8510 fluorescence intensity (a.u.)
GCCTCCGCCTCTCATATTTTTCCCATTTTTCACCTGCCTTCGGAGTCACCTAGTGCAG | 10800 fluorescence intensity (a.u.)
ATCTATCTATTGTACCCTTCTTAAACCGGAAGCAACATATCGGAGTCACCTAGTGCAG | 8150 fluorescence intensity (a.u.)
ACACGGCCACAGTTTCTTCATAGATTTGTTGTTACTACTCCGGAGTCACCTAGTGCAG | 9340 fluorescence intensity (a.u.)
ATATTCCCCTGTGGTTCTACTCTCCCATCCCGTCCGGTTCCGGAGTCACCTAGTGCAG | 8720 fluorescence intensity (a.u.)

Sequence | binding signal
CCGGAACTCCGTCATGTCGGCCTTCTTCGCGAACTTCTTCCGGAGTCACCTAGTGCAG | 8170 fluorescence intensity (a.u.)
GGATCTGTCCGTTCTACCACCTCTAAACAGCGGTTACCGACGGAGTCACCTAGTGCAG | 8260 fluorescence intensity (a.u.)
GTAGCTGGGTCAAATTTGTACTTGTATGAGCAAGGTTGCTCGGAGTCACCTAGTGCAG | 8130 fluorescence intensity (a.u.)
AGTCTAACACGGTTTCCGATATGCAACTTTGACCAACAATCGGAGTCACCTAGTGCAG | 8250 fluorescence intensity (a.u.)
CATTTCTCTGGACTTCTCTCTCCCTTTCTTCCTTTCTCTGCGGAGTCACCTAGTGCAG | 9260 fluorescence intensity (a.u.)
GTTTTATGGTTATAGTAGTTTCGCGTGTTTCATAAAATAACGGAGTCACCTAGTGCAG | 8220 fluorescence intensity (a.u.)
TCCCATCGATGATCCTTCGTTGATTCGCGTCAACCTCTCGCGGAGTCACCTAGTGCAG | 8690 fluorescence intensity (a.u.)
CCAATACGATATCGACTCGACCCTTGTTCGGCCCAGTACGCGGAGTCACCTAGTGCAG | 8030 fluorescence intensity (a.u.)
CTCCGTTTTGTTTTTTTTTTCGTTTTCTTTTTTCTTCCTCCGGAGTCACCTAGTGCAG | 12200 fluorescence intensity (a.u.)
TCGTTGTGTCGGCTCCACCCGTTTGGGTGGATCCCTTCCGCGGAGTCACCTAGTGCAG | 8060 fluorescence intensity (a.u.)
TCCCAAAGGAGCCCTCACAAAAATTCGGCCATTTTCGCTTCGGAGTCACCTAGTGCAG | 8220 fluorescence intensity (a.u.)
TGTGCCTTAATCCACATGCTTAACCTTAATTAATTGATTACGGAGTCACCTAGTGCAG | 9350 fluorescence intensity (a.u.)
TGTTGACTTTTGGATACATGTTTGACAATTCGTCTTATTTCGGAGTCACCTAGTGCAG | 14700 fluorescence intensity (a.u.)
GCGATGTGTGTTGACTTAAGTCACCGTCCTCCGTAACGATCGGAGTCACCTAGTGCAG | 10400 fluorescence intensity (a.u.)
TTGCGGATTGGTGGAAGGAGTTGGTTTATTTTGGGACAAACGGAGTCACCTAGTGCAG | 8220 fluorescence intensity (a.u.)
GGTGGCGAGAGGAGGGGATGGCGGAGGGCGGCGAAGGGACCGGAGTCACCTAGTGCAG | 11300 fluorescence intensity (a.u.)
TCTTGGTTACATGGTGGTTGGTGTTTCATTCTCTTGTTTTCGGAGTCACCTAGTGCAG | 10000 fluorescence intensity (a.u.)
ATTTTGTGCTTCAACTTGTTATCATACAATTTTCCAATTACGGAGTCACCTAGTGCAG | 8260 fluorescence intensity (a.u.)
CGCCGCGTCCCACCCGCTCCACGCCGCGTACGCGCTCTTCCGGAGTCACCTAGTGCAG | 8640 fluorescence intensity (a.u.)
GTCTTCTGCATGAAGGGTGGGCAAGGGGAGTCCAGTTACCCGGAGTCACCTAGTGCAG | 9570 fluorescence intensity (a.u.)
AATTGATGATGTGGAGTCGTTTTTCATCGTTTCCGTGAAACGGAGTCACCTAGTGCAG | 8120 fluorescence intensity (a.u.)

Sequence | binding signal
TCCTCACCTGGATTCTGTTCCAAATTTGATCAACCACACTCGGAGTCACCTAGTGCAG | 11000 fluorescence intensity (a.u.)
TCCATGGTTCACACTTCACACCTGGGCTGCCTGTTCATCACGGAGTCACCTAGTGCAG | 9320 fluorescence intensity (a.u.)
AACTTTCAACTTTTCTATCACATCAAAACTTTCATACACACGGAGTCACCTAGTGCAG | 8450 fluorescence intensity (a.u.)
CCTCCACCATATCACACAGCAGCTCACTTGTCTCGCTTCCCGGAGTCACCTAGTGCAG | 11100 fluorescence intensity (a.u.)
ATAAACTTTCAGCTTTCGATCTGATCCATCGGTTCCTTAGCGGAGTCACCTAGTGCAG | 9750 fluorescence intensity (a.u.)
GGGGAGGAGGAGGAGGAGGGTAGGGATGGGGAAGAGGAGTCGGAGTCACCTAGTGCAG | 8020 fluorescence intensity (a.u.)
CTTTGGTCCTCGCCCGCATGCCGCTGTCGCCACCGCTGTGCGGAGTCACCTAGTGCAG | 11200 fluorescence intensity (a.u.)
TCTGTAATCACATCAGTCCTTTCTGTCGCGTAGTACGCCTCGGAGTCACCTAGTGCAG | 8050 fluorescence intensity (a.u.)
TCATATTATCTATCCATTACTTCCGTTGTGTCTCATCCCTCGGAGTCACCTAGTGCAG | 9780 fluorescence intensity (a.u.)
TTCACATCCTGAGTTCCTGACCAATTTCATTCACTCACACCGGAGTCACCTAGTGCAG | 9630 fluorescence intensity (a.u.)
TTATGTTTTGCTGTTGTGAATGGAATATTGCTTGCATGATCGGAGTCACCTAGTGCAG | 9520 fluorescence intensity (a.u.)
TTTCGCCTCGTCGATTCGTCGAACACCTCGCGAGCTTCCTCGGAGTCACCTAGTGCAG | 8280 fluorescence intensity (a.u.)
CTAGTATGTCTGCGTGTGCCTGCCGTGCATTCGAATTTTTCGGAGTCACCTAGTGCAG | 9750 fluorescence intensity (a.u.)
CTATACTATTAAACTTGCTCTCAACTCTACCCGTGCAGTCCGGAGTCACCTAGTGCAG | 8070 fluorescence intensity (a.u.)
CGGAGGCGGCGCCTGAGGAGGGGCTTGGGGCGGAGGCCGACGGAGTCACCTAGTGCAG | 10400 fluorescence intensity (a.u.)
GCTGTTTAACCCGTCGGCTCGCCGGCGCTCCCATCCATCCCGGAGTCACCTAGTGCAG | 8240 fluorescence intensity (a.u.)
GGCGCTTTATTCAATTGGTCCGCTCTCGGTCTCCTGCACGCGGAGTCACCTAGTGCAG | 8270 fluorescence intensity (a.u.)
TAACAACATTAGCCGCACACATATTACACCGTTGAATCAGCGGAGTCACCTAGTGCAG | 8360 fluorescence intensity (a.u.)
TTTTTGGTTCTCGTTCATTTTTGTGCTGTGGTAAGAAGTCCGGAGTCACCTAGTGCAG | 8190 fluorescence intensity (a.u.)
GACTCGTGCGCCGCCTACTTTCGCCAATCGCCATGGTGCACGGAGTCACCTAGTGCAG | 8270 fluorescence intensity (a.u.)
CTCCTCCTCCGATCCTGTGTGTGCATGCGTCTCCGTGCACCGGAGTCACCTAGTGCAG | 9840 fluorescence intensity (a.u.)
